No constants are given. Whether binding was seen depends on the method and setting. Binding seen in cells or lysates may run through a third protein. Binding calls can cover weak binding; strength is not graded here.
Target: Flag-tagged full-length TMUB1 (pcDNA-FLAG-Tmub1, amino acids 1-245) (rat)
Assay: co-IP; BRL-3A transfected with Flag-tagged full-length TMUB1 or deletion mutants; beads with anti-Flag antibody, blot anti-CAML, and beads with anti-CAML antibody, blot anti-Flag; lysis buffer 20 mM Tris-HCl pH 7.5, 500 mM NaCl, 2% Triton X-100; overnight at 4 °C

- binding: binds
B1: calcium-modulating cyclophilin ligand (CAML), endogenous in BRL-3A rat hepatocytes (protein, UniProt Q6DGG9 1-295)
chain: MEPMPSATDGGDRSATPSGLSASQRRAELRRRKLLMNSEQRINRIMGFHRPGSGAEEENQTKSKPLDSDILNPLGVPSVSKRVVLGDSVDGGVTDYQPSGGADIRGAQLGDKLDSFIKAPECSSKDGVELRQRNRGDLTADSAPRGSHHGLEQYLSRFEEAMKLRKQLISEKPSQEDGRTTEEFDSFRIFRLVGCALLALVVRAFVCKYLSIFAPFLTLQLAYMGLYKYFPKGEKKVKTTVLTAALLLSGIPAEVINRSMDTYSKMGEVFTDLCVYFFTFIFCHEVLEYWGPEVP

Reference: PMC6028644
